From paper doi:10.1101/2022.09.29.510028
These are yes or no findings as the source states them, for the method shown. Some entries that bind do so weakly or less than the wild type.

Key:
[1] = biological target: NPM1_(188) (NTD and the acidic regions of the IDR, residues 1-188) (human); assay: native MS
[2] = biological target: NPM1_(240-294) (isolated C-terminal nucleotide-binding domain) (human); assay: native MS

binding [1]: binds weakly
binding [2]: no binding
B1: NPM1_(240-294) (isolated C-terminal nucleotide-binding domain) (domain or fragment)
chain: GPSSVEDIKAKMQASIEKGGSLPKVEAKFINYVKNCFRMTDQEAIQDLWQWRKSL
